24 sequences from article PMC7862700 can be followed below.

Protein sequences, listed by entry. Tags and fused reporters are not part of them. Lines headed by an entry give the natural chain unless they say otherwise; changes in a name come on top.
UniProt P32519: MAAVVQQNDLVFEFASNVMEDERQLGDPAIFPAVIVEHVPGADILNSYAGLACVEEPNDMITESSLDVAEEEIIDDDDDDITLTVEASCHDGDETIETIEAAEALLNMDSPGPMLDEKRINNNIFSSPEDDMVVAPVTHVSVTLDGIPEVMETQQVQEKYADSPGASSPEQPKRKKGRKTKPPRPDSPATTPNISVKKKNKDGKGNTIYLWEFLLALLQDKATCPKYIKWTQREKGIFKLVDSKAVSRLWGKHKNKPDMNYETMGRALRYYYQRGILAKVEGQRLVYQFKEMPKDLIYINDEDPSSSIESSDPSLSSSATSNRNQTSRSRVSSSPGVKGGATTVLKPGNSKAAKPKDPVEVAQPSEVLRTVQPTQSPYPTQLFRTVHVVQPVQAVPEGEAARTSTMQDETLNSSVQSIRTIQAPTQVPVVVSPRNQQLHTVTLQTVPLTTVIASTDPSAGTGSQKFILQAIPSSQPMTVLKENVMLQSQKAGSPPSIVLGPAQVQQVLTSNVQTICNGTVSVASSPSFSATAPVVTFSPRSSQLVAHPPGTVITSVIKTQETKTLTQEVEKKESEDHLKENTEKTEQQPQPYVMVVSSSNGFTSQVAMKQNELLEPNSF
UniProt P50549: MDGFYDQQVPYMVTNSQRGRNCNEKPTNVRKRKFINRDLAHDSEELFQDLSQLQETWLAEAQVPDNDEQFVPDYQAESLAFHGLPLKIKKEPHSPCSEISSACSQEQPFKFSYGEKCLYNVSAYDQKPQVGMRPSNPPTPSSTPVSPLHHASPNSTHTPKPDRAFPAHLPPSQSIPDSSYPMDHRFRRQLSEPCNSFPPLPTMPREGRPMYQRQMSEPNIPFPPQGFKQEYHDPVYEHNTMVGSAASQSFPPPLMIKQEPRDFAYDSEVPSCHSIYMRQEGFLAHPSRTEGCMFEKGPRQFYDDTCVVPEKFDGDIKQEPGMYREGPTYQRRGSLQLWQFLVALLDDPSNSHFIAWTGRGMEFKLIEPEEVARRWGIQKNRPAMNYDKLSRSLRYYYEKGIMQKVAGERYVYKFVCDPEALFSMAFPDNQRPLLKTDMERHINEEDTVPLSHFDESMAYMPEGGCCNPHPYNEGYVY

What all share (test): DAPPL (digital affinity profiling via proximity ligation, sequencing)
Common to all, as to conditions: 10 mM Tris-HCl pH 7.5, 50 mM NaCl, 1 mM DTT, 4% glycerol, room temperature, 30 min; GST-TFs on glutathione beads, 16-mer random dsDNA library, 0.1% …; high values mean tight binding; double strand, one strand shown; scale: fold enrichment (6-mer frequency, TF over GST control)

The target of one experiment is T1, ERG (UniProt P11308).
T1 sequence: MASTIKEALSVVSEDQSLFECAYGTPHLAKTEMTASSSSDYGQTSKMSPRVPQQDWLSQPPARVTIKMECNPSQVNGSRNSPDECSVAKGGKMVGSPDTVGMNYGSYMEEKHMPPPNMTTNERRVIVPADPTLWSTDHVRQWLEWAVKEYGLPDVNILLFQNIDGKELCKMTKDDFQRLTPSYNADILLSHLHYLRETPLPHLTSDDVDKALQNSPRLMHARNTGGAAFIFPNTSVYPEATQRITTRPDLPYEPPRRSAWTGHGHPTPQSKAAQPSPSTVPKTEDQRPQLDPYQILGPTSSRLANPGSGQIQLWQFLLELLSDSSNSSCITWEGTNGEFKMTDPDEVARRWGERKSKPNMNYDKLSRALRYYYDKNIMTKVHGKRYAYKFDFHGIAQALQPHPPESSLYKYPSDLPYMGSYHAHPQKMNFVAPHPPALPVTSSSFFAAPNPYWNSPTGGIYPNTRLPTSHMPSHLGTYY

The target in a further experiment is ELF1 (UniProt P32519).
A further experiment deals with T2, ELK4 (UniProt P28324-2).
T2 sequence: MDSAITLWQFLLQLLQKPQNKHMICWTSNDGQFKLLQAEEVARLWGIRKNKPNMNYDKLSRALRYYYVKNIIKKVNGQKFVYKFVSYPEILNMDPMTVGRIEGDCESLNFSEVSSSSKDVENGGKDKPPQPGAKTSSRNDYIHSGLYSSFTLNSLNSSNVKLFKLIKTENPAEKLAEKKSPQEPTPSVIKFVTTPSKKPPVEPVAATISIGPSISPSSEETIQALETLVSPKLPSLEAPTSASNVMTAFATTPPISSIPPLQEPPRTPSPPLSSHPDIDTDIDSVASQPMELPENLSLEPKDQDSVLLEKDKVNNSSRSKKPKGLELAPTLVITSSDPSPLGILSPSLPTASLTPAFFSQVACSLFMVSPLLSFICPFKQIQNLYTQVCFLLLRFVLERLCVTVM

The next experiment deals with T3, ETV4 (UniProt P43268).
T3 sequence: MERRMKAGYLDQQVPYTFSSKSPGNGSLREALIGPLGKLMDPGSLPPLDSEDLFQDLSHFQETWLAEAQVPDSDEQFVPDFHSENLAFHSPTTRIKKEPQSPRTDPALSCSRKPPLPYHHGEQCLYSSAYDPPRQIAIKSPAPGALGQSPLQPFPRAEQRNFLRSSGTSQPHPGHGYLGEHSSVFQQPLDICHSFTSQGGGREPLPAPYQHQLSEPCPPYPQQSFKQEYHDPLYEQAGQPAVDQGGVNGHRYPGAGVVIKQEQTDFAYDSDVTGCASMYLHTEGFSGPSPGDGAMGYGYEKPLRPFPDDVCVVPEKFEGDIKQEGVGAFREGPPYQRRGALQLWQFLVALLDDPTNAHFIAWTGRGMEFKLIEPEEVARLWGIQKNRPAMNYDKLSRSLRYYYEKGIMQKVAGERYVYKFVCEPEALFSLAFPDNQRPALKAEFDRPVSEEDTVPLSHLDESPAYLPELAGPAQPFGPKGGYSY

The target in a further experiment is ETV1 (UniProt P50549).
The target of the next experiment is T4, ERF (UniProt P50548).
T4 sequence: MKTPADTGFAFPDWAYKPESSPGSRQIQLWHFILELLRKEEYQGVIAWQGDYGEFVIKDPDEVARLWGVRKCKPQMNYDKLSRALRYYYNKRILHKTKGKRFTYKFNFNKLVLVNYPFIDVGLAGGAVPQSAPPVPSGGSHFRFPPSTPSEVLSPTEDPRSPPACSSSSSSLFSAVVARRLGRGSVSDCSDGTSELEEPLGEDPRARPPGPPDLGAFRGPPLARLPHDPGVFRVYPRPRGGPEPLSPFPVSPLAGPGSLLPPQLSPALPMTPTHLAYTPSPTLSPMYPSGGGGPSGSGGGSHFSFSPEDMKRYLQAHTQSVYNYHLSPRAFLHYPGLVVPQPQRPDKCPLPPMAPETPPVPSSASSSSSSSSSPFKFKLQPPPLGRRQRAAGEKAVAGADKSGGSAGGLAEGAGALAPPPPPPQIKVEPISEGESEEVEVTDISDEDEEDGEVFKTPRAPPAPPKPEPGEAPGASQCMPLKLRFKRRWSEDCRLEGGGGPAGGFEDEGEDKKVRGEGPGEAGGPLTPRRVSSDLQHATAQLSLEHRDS

Only a part is listed here, and it is no random draw. For some assays here: At the low end of the ranking, values are background and their order means little. Some of the results follow. For some assays here: The exact form of the protein is not confirmed.

With AGGCGC, the binding signal in the experiment with ERG stood at 0.557; in the experiment with ELF1, 0.558; with ELK4 it was 0.595; with ETV4, 0.583; with ETV1, 0.541; in the experiment with ERF it was 0.609.
With CACCGT, the binding signal was 0.645 with ERG; 0.637 with ELF1; 0.688 with ELK4; 0.658 in the experiment with ETV4; 0.616 with ETV1; 0.747 with ERF.
GGCTGT: the binding signal with ERG stood at 0.806; in the experiment with ELF1, 0.839; with ELK4, 0.818; with ETV4, 0.724; with ETV1, 0.747; with ERF it was 0.876.
As for TGAGCG, the binding signal was determined as 0.634 in the experiment with ERG; 0.642 in the experiment with ELF1; 0.769 with ELK4; 0.647 with ETV4; 0.623 with ETV1; 0.662 in the experiment with ERF.
Turning to CAAGGG, the binding signal stood at 0.908 with ERG; 0.909 with ELF1; 0.901 in the experiment with ELK4; 0.877 with ETV4; 0.914 in the experiment with ETV1; 0.945 with ERF.
In the case of TCGGAC, the binding signal with ERG turned out to be 0.386; in the experiment with ELF1, 0.401; with ELK4, 0.379; in the experiment with ETV4, 0.373; with ETV1, 0.358; with ERF it was 0.378.
For the sequence GAGGTC, the binding signal is 0.575 in the experiment with ERG; 0.601 with ELF1; 0.634 with ELK4; 0.601 in the experiment with ETV4; 0.657 in the experiment with ETV1; 0.637 with ERF.
In the case of GGGTGC, the binding signal in the experiment with ERG amounted to 0.743; with ELF1, 0.777; with ELK4 it was 0.855; with ETV4, 0.751; with ETV1 it was 0.701; with ERF it was 0.858.
Take GGGGGT: the binding signal in the experiment with ERG amounted to 0.519; with ELF1, 0.52; with ELK4, 0.567; with ETV4, 0.556; with ETV1 it was 0.604; in the experiment with ERF it was 0.567.
On to CGTGTA, for which the binding signal is 0.648 with ERG; 0.657 in the experiment with ELF1; 0.642 in the experiment with ELK4; 0.653 in the experiment with ETV4; 0.649 with ETV1; 0.63 with ERF.
With GGCCAC, the binding signal with ERG amounted to 0.937; with ELK4, 0.949; in the experiment with ETV4, 1.04; with ETV1, 0.994; with ERF it was 0.935.
In the case of ACAGCG, the binding signal stood at 0.848 in the experiment with ERG; 0.859 in the experiment with ELF1; 0.878 with ELK4; 0.768 in the experiment with ETV4; 0.856 with ETV1; 0.795 with ERF.
Take TGGAGT: the binding signal came out at 0.511 with ERG; 0.5 with ELF1; 0.535 in the experiment with ELK4; 0.54 with ETV4; 0.5 with ETV1; 0.48 with ERF.
Turning to GAACGC, the binding signal with ERG is 0.712; in the experiment with ELF1, 0.751; with ELK4, 0.771; in the experiment with ETV4, 0.735; with ETV1 it was 0.769; with ERF, 0.798.
For AGAGTC, the binding signal in the experiment with ERG came out at 0.447; in the experiment with ELF1 it was 0.438; with ELK4, 0.538; with ETV4, 0.426; with ETV1, 0.474; with ERF, 0.471.
With AGGCGA, the binding signal with ERG came out at 0.542; with ELF1 it was 0.526; in the experiment with ELK4, 0.493; with ETV4, 0.471; with ETV1, 0.577; with ERF, 0.501.
For GCGGGC, the binding signal with ERG is 0.744; with ELF1, 0.781; with ELK4, 0.763; with ETV4, 0.784; with ETV1 it was 0.752; in the experiment with ERF, 0.828.
Regarding ATCGGG, the binding signal is 0.449 in the experiment with ERG; 0.432 with ELF1; 0.479 with ELK4; 0.467 with ETV4; 0.471 with ETV1; 0.465 with ERF.
As for CGGCGT, the binding signal is 0.903 with ERG; 0.854 in the experiment with ELF1; 0.904 with ELK4; 0.87 with ETV4; 0.922 in the experiment with ETV1; 0.925 with ERF.
Regarding CAGAGT, the binding signal with ERG stood at 0.632; with ELF1 it was 0.635; with ELK4, 0.675; in the experiment with ETV4 it was 0.65; in the experiment with ETV1 it was 0.675; with ERF it was 0.587.
For TGAGAG, the binding signal in the experiment with ERG was found to be 0.558; with ELF1 it was 0.568; in the experiment with ELK4, 0.59; in the experiment with ETV4, 0.532; with ETV1 it was 0.566; in the experiment with ERF, 0.651.
On to AAGACC, for which the binding signal was 0.907 with ERG; 0.819 with ELF1; 0.858 with ELK4; 0.904 in the experiment with ETV4; 0.854 with ETV1; 0.881 with ERF.
GCGTGT: the binding signal in the experiment with ERG amounted to 0.535; with ELF1, 0.547; with ELK4, 0.578; with ETV4 it was 0.552; with ETV1 it was 0.598; with ERF it was 0.54.
Consider GGACAG, for which the binding signal with ERG stood at 0.6; with ELF1, 0.625; with ELK4, 0.539; in the experiment with ETV4, 0.586; with ETV1 it was 0.594; with ERF it was 0.586.
